SMILES strings stand for the structures.

This assay relates to E. coli ATCC 25922 NDM-1. Put plainly: microbe, parasite or virus in culture. It is filed as cell-based. To be noted: Escherichia coli, ATCC25922, read-out: Minimum inhibitory concentration of meropenem. The protocol:
The in vitro susceptibility of meropenem in combination with the different compounds was evaluated against E. coli expressing NDM-1 in a broth microdilution assay. A 96-well plate was prepared with the compounds in a twofold dilution series (final concentrations 1024–0.5 mg/L) in Muller Hinton II broth (MHB-II) in combination with 2, 4, or 8 mg/L meropenem. EDTA (100 μM) was used in combination with meropenem as control for inhibition of NDM-1. Three–five colonies of E. coli ATCC 25922 NDM-1 were suspended in 0.90% saline solution and adjusted to the 0.5 McFarland turbidity standard. The bacterial suspension was diluted in MHB-II and adjusted to a final inoculum of 5 × 10^5 CFU/mL.

Take `C[C@@H](O)[C@H]1C(=O)N2C(C(=O)O)=C(S[C@@H]3CN[C@H](C(=O)N(C)C)C3)[C@H](C)[C@H]12` [Meropenem, meropenem]: the MIC came out at 32 µg/mL.

(Values after paper PMC8830069, “Metallo-β-Lactamase Inhibitor Phosphonamidate Monoesters” (ACS Omega, 2022).)
